# Data from PubChem BioAssay AID1487 (National Center for Advancing Translational Sciences (NCATS), 2009).
# Where “and” joins values, the source holds several entries; their conditions need not be identical. Equal values may be shown once. Some of the results follow. Further columns of the screen follow, without active or inactive calls. Most of these compounds were active or inconclusive in the main read-out, so they are no random draw. Potencies come from curve fits of mixed quality, noted in brackets.
# Assay: qHTS Assay for Modulators of Lamin A Splicing
# Conditions: HeLa LMNA splicing GFP/RFP minigene ratio, 48 h
# Summary of the method: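 Read-out is the ratio of GFP to DsRed2 object intensity, acquired by 488 nm laser-scanning cytometry on HeLa lamin A-EGFP minigene reporter cells. Compound incubation 48 hrs at 37 °C in Opti-MEM with 2% FBS; DMSO 0.5% final.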
# [1] = measured here: RFP viability control channel
# [2] = measured here: GFP splicing reporter channel
smiles,measurement,setting,value
COc1ccc(N2CCN(C(=O)CSc3ccccc3N)CC2)cc1,AC50,[1],"35.5 µM [rising, single point]"
Cc1ccc(S(=O)(=O)N(CC(=O)N2CCc3ccccc3C2)c2ccc(Cl)c(Cl)c2)cc1,AC50,[1],"8.91 µM [rising, partial curve]"
Clc1ccc2[nH]c3c(N4CCC5(CC4)OCCO5)ncnc3c2c1,AC50,[1],"8.91 µM [rising, single point]"
COc1ccc(Cc2nc(-c3ccc(Br)cc3)no2)cc1,AC50,[2],"12.6 µM [falling, partial curve, poor fit]"
same,AC50,[1],"11.2 µM [rising, partial curve]"
CSc1c2c(nc3ncnn13)CCC2,AC50,[1],"25.1 µM [rising, single point]"
CCCNC(=O)Cn1c(=O)oc2ccccc21,AC50,[1],"2.24 µM [falling, full curve, poor fit]"
O=C(CSC1=Nc2ccccc2C2=NC(Cc3ccccc3)C(=O)N12)Nc1cccc(Cl)c1 (stereo not drawn),AC50,[1],"12.6 µM [rising, partial curve, poor fit]"
O=C(N/N=C/c1ccccn1)c1cc(-c2cccc3ccccc23)n[nH]1,AC50,[1],"8.91 µM [rising, partial curve, poor fit]"
CC(C)(C)c1ccc(NC(=S)NCc2cccs2)cc1,AC50,[2],"35.5 µM [rising, single point]"
same,AC50,[1],"28.2 µM [rising, single point]"
COc1ccc(-c2cnc(SCC(=O)Nc3nc(C(C)(C)C)cs3)n2Cc2ccco2)cc1,AC50,[1],"35.5 µM [rising, single point]"
O=C1Nc2ccccc2N=C(c2ccccc2)C1Br (stereo not drawn),AC50,[2],"35.5 µM [falling, partial curve, poor fit]"
same,AC50,[1],"1.26 µM [falling, partial curve, poor fit]"
CC(O)C(=O)N/N=C/c1cccc2ccccc12 (stereo not drawn),AC50,[1],"1.12 µM [falling, partial curve]"
CC(C)n1c(-c2ccccc2)nc(=S)c2c1CCCC2,AC50,[2],"11.2 µM [rising, partial curve]"
same,AC50,[1],"8.91 µM [rising, partial curve]"
Cc1c(-n2c(-c3ccccc3Cl)n[nH]c2=S)c(=O)n(-c2ccccc2)n1C,AC50,[2],"0.01 µM [falling, full curve, poor fit]"
same,AC50,[1],"0.0112 µM [falling, full curve, poor fit]"
CSc1ccc(C2C(C#N)=C(N)Oc3cc4c(cc32)OCO4)cc1 (stereo not drawn),AC50,[1],"6.31 µM [rising, partial curve, poor fit]"
CC(=O)N1CCC2(CC1)C/C(=N\NC(=S)Nc1ccccc1C)c1cc(O)ccc1O2,AC50,[1],"0.0158 µM [falling, full curve, poor fit]"
CCOc1ccccc1CNS(=O)(=O)c1ccc(-c2cnc(C3CC3)o2)cc1,AC50,[2],"0.0891 µM [rising, full curve, poor fit]"
same,AC50,[1],"0.224 µM [rising, partial curve]"
CC(=O)Nc1ccc(NC(=O)c2ccc(C3SCC(=O)N3CCc3ccccc3)cc2)cc1 (stereo not drawn),AC50,[2],"11.2 µM [rising, partial curve]"
same,AC50,[1],"28.2 µM [rising, single point]"
COc1cc([N+](=O)[O-])ccc1NC(=O)CSc1nnc(C)c(C)n1,AC50,[1],"1.26 µM [falling, partial curve, poor fit]"
CCOC(=O)C1=C(c2ccccc2)NC(=S)NC1c1ccc(Cl)c([N+](=O)[O-])c1 (stereo not drawn),AC50,[2],"8.91 µM [rising, partial curve]"
same,AC50,[1],"20 µM [rising, partial curve, poor fit]"
O=c1c2ccccc2nc(-c2ccccc2)n1Cc1ccccc1,AC50,[2],"7.08 µM [rising, partial curve, poor fit]"
same,AC50,[1],"11.2 µM [rising, partial curve]"
O=C(NC1CC(=O)N(c2ccc(F)cc2)C1)c1ccc(S(=O)(=O)N2CCOCC2)cc1 (stereo not drawn),AC50,[1],"3.98 µM [falling, full curve, poor fit]"
Cc1cc(C)n(-c2nc(NC(C)C)nc(NC(C)C)n2)n1,AC50,[2],"35.5 µM [falling, single point]"
same,AC50,[1],"25.1 µM [falling, single point]"
Cc1nc2c(=O)n(C)c(=O)n(C)c2nc1Cl,AC50,[2],"3.16 µM [rising, full curve]"
same,AC50,[1],"3.55 µM [rising, full curve]"
COc1ccc(N2CCN(C(c3ccccc3OC)c3nnnn3C3CCCC3)CC2)cc1 (stereo not drawn),AC50,[1],"7.08 µM [rising, partial curve]"
CCOC(=O)c1c(NC(=O)c2ccc(S(=O)(=O)N3CCCC(C)C3)cc2)sc2c1CC(C)(C)NC2(C)C (stereo not drawn),AC50,[2],"14.1 µM [falling, partial curve]"
same,AC50,[1],"25.1 µM [falling, partial curve, poor fit]"
Cc1ccc(-n2ncc3c(Nc4ccc5c(c4)OCCO5)ncnc32)cc1Cl,AC50,[2],"0.01 µM [falling, full curve, poor fit]"
O=C(NCC1CCCO1)C1CCC(N2C(=O)c3ccccc3C2=O)CC1 (stereo not drawn),AC50,[1],"5.01 µM [rising, single point]"
COc1ccc(C(C)=O)cc1CSc1nnc(Nc2ccccc2)s1,AC50,[1],"12.6 µM [rising, partial curve]"
COc1cc(OC)cc(C(=O)Nc2ccc3c(c2)CCCN3C(=O)c2cccs2)c1,AC50,[2],"0.316 µM [falling, partial curve, poor fit]"
CC(=O)NCC1CCCN(Cc2cn(-c3ccccc3)nc2-c2ccc3c(c2)OCO3)C1 (stereo not drawn),AC50,[2],"3.98 µM [falling, partial curve, poor fit]"
CNC(=O)c1ccc(NC(=O)c2cccc(C(F)(F)F)c2)cc1,AC50,[2],"0.891 µM [falling, full curve, poor fit]"
COCCNC(=S)N/N=C(\C)CCc1ccc2c(c1)OCO2,AC50,[2],"35.5 µM [rising, single point]"
COc1ccc(OC)c(NC(=O)CSc2nnnn2-c2ccc3c(c2)OCO3)c1,AC50,[1],"35.5 µM [falling, single point]"
CC/C(=C(\c1ccccc1)c1ccc(OCCN(C)C)cc1)c1ccccc1,AC50,[2],"7.94 µM [falling, partial curve] and 28.2 µM [falling, single point]"
same,AC50,[1],"7.08 µM [falling, partial curve] and 25.1 µM [falling, partial curve, poor fit]"
CC(=O)Nc1ccccc1OCC(=O)NC(C)c1ccc(F)cc1 (stereo not drawn),AC50,[1],"10 µM [rising, partial curve]"
C/C(=N/NC(=O)c1cccc(N2CCCC2=O)c1)c1ccncc1,AC50,[2],"35.5 µM [falling, single point]"
CN(C)CCc1c[nH]c2ccc(CC3COC(=O)N3)cc12 (stereo not drawn),AC50,[2],"3.16 µM [rising, partial curve]"
COc1c(C)cc(C(=O)C2CCCN(C(=O)c3ccc4[nH]ccc4c3)C2)cc1C (stereo not drawn),AC50,[2],"0.0316 µM [falling, full curve, poor fit]"
same,AC50,[1],"0.0355 µM [falling, full curve, poor fit]"
COCCn1c(C)nnc1SCC(=O)Nc1ccccc1[N+](=O)[O-],AC50,[2],"0.0224 µM [falling, full curve, poor fit]"
same,AC50,[1],"10 µM [falling, partial curve, poor fit]"
OC(COCC1CC=CCC1)Cn1cnc2ccccc21 (stereo not drawn),AC50,[1],"35.5 µM [rising, single point]"
Fc1ccccc1-c1csc(=Nc2cccnc2)n1CC1CCCO1 (stereo not drawn),AC50,[2],"10 µM [rising, partial curve]"
same,AC50,[1],"12.6 µM [rising, partial curve]"
Cc1cccc(C(=O)N2CCc3cc(CNC(=O)c4ccco4)ccc32)c1,AC50,[1],"3.55 µM [falling, full curve]"
CCc1oc2ccccc2c1C(=O)c1cc(Br)c(O)c(Br)c1,AC50,[2],"0.1 µM [falling, full curve, poor fit]"
same,AC50,[1],"14.1 µM [falling, single point] and 44.7 nM [rising, full curve, poor fit] and 8.91 µM [rising, partial curve]"
O=C(N/N=C/c1ccc2c(c1)OCO2)c1cc(-c2ccccc2)nc2ccccc12,AC50,[1],"35.5 µM [rising, single point]"
O=C(Nc1cccnc1)c1ccc(S(=O)(=O)c2ccc(Cl)cc2)cc1,AC50,[1],"0.00501 µM [falling, full curve, poor fit]"
O=S(=O)(c1ccc2ccccc2c1)N1CCC(c2nc(-c3ccncc3)no2)CC1,AC50,[2],"3.98 µM [rising, full curve, poor fit]"
same,AC50,[1],"3.16 µM [rising, partial curve]"
Cc1ccc(S(=O)(=O)N2CCN(Cc3ccccc3)CC2)c(C)c1N(C)S(=O)(=O)c1ccccc1,AC50,[2],"11.2 µM [rising, partial curve]"
same,AC50,[1],"11.2 µM [rising, partial curve]"
O=C(Nc1ccc2cn[nH]c2c1)c1ccc(S(=O)(=O)N2CCOCC2)cc1,AC50,[2],"1.58 µM [rising, partial curve, poor fit]"
CC(=O)N1CCCc2cc(S(=O)(=O)Nc3ccc(Cl)cc3F)ccc21,AC50,[2],"11.2 µM [falling, single point]"
same,AC50,[1],"12.6 µM [falling, single point]"
CN(C)c1ccc(/C=C(\Cl)c2nc3ccccc3s2)cc1,AC50,[1],"35.5 µM [rising, single point]"
COc1ccc(CC(=O)N2CCc3c([nH]c4ccccc34)C2c2ccc(SC)cc2)cc1 (stereo not drawn),AC50,[2],"0.398 µM [rising, partial curve, poor fit]"
same,AC50,[1],"0.282 µM [rising, full curve, poor fit]"

# An excerpt of these results, with bars between the fields:
smiles | measurement | setting | value
CC/C(=C(\c1ccccc1)c1ccc(OCCN(C)C)cc1)c1ccccc1 | AC50 | [2] | 7.94 µM [falling, partial curve] and 28.2 µM [falling, single point]
same | AC50 | [1] | 7.08 µM [falling, partial curve] and 25.1 µM [falling, partial curve, poor fit]
CC(=O)Nc1ccccc1OCC(=O)NC(C)c1ccc(F)cc1 (stereo not drawn) | AC50 | [1] | 10 µM [rising, partial curve]
